Reference: the supplement of paper PMC5949888
Most values lie at the floor of the assay. Slopes are relative: functional sequences can read slightly below zero.

system: Saccharomyces cerevisiae PS128 hsf1 delta, HSF1(1-493) fusion; assay: growth estimate (transactivation domain function in HSF1 fusion, heat-shock survival) (a.u. (slope of normalised read count over time)); higher = stronger growth at 37°C, i.e. more transactivation activity; settings: library: random library

Substance | growth estimate
PIHRAAEIVTVSGLRASKNA | < -0.25
GFGL | < -0.25
SLVRPPAKTKVCGVRR | < -0.25
DDTV | < -0.25
PSSSRELGPAFLAASMTGLG | < -0.25
TMARG | < -0.25
SRYTLYS | < -0.25
ASTTRSVRTLCRLDLPEWSS | < -0.25
SGECDENCEAH | < -0.25
GRVRRSWCSCVRRRVEPSRV | < -0.25
LNAMEGTWLAGYQTTVNPFR | -0.246
HSEIVAEFRSLLCRGARECS | < -0.25
EITT | -0.243
RFNVSEGRRVANVEHGGSNS | < -0.25
ATALNLLSGILDPWESDWTN | -0.176
RPLFPVYILGAICRVRCSDQ | < -0.25
IVLNPGN | < -0.25
LLAYDFVSGHTLELDLSYAA | -0.213
DPKCLPYPTG | < -0.25
WPRPLYTRSRKPSRTRSPPR | < -0.25
RHPVPDGECTLSRGGDGTQG | < -0.25
RIRGRSWCLVESSHRACRTA | < -0.25
CGLGSVAPLPAGSSHR | < -0.25
REIVYRRIGITRRPNIG | < -0.253
RSKSC | < -0.25

Part of the list above, reformatted.
Substance	growth estimate
RFNVSEGRRVANVEHGGSNS	< -0.25
ATALNLLSGILDPWESDWTN	-0.176
REIVYRRIGITRRPNIG	< -0.253

Reprinted at random: two entries already listed, in no set order.
Substance | growth estimate
GRVRRSWCSCVRRRVEPSRV | < -0.25
SGECDENCEAH | < -0.25

(list continues)

Substance | growth estimate
RCQIQRRVLPSQFSALPVGE | < -0.25
GPLPDIGMCDVE | < -0.25
LGRAEDHIEKFNAP | < -0.25
FCPRGQYMLAQTNRVVWRIS | < -0.25
RRSSDD | < -0.25
CRADGRNTGP | < -0.25
QPAYCLYRLSAT | < -0.25
YRAAWRVLVVADWMPNPAAA | < -0.25
SVRIRLFEDEVSSRGLYDTR | < -0.25
RTRVTSYMARRQ | < -0.25
NFY | < -0.25
MLLPNRVSWHLPVHRA | < -0.25
VHCWSCGCVKVRRFRFQLRA | < -0.25
LGPKNDRLEISLLPPSYLST | < -0.25
SDEWRPDRCSSCNKAISAHT | < -0.25
LSD | < -0.25
LLLRSLKSKIRPYKGGRFHP | < -0.25
QNLSGTRL | < -0.25
SPCLAQCAHPDVQESGPGHM | < -0.25
PPVPTLLYTAR | < -0.25
GVLIYPQFNVVNCLRGFYPG | < -0.25
REMRLRPGPVQGWAPLNTVW | < -0.25
QPG | < -0.25
ELGLQLFR | < -0.25
HILQGDHMPFQRCQRARITN | < -0.25

Substance | growth estimate
NSAGRKVTYMGTLRSTCPDH | < -0.25
KSPFIDGLCSGSAHEGESFD | < -0.25
VSVDS | < -0.25
ALDTRGSGRVMYWACVRSYG | < -0.25
AAPYDCNSAMVDFPALLRSC | -0.237
LRCPISL | < -0.25
RASSISFVCEAA | < -0.25
AVIWRF | < -0.25
RVIAAVRVGLGAPFVNPLSS | < -0.25
LKGTRS | < -0.25
DTHTARRQRKDWESAGLSSI | < -0.25
RRSTGSKIVLMTGSKVSHLT | < -0.25
LGEGSAPEGYQDSGLLRLHI | 0.0596
PTLRGIAL | < -0.25
RDHRGAEGALAPGKGTNMDG | < -0.25
RYS | < -0.25
LETFFIVAPVSHPTLR | < -0.25
IDGN | < -0.25
GTTFVRIRHYG | < -0.25
SNTKDSTETREV | < -0.25
SAR | < -0.25
TVSEQA | < -0.25
AYG | < -0.25
GLVAGCAWHFSVPHHSVVFG | < -0.25
LYFLRRLGYGYCGTRESLDR | < -0.25

Substance | growth estimate
AGGRCPAFLSDHSE | < -0.25
AMMIDCCIADDHSGCKH | < -0.25
VLVTNVLRSWESAPAHVAEL | < -0.25
HKCSEKLSVTALVADRVRDD | < -0.25
CLVTTGLPLQVLGWDS | < -0.25
LRVTIYRKGVTPLALR | < -0.25
MVPVSC | < -0.25
ALY | < -0.25
NHRDHNLGSHIDRPVHLCAS | < -0.25
TRSRGSEFKKFRGGINWASL | < -0.25
LIRIL | < -0.25
RTLR | < -0.25
AAKSCSANP | < -0.25
GWHLESPQVNRLEHMLSFPK | < -0.25
PFSTLP | < -0.25
AHTNGQRWTNHSLHEQRHKF | < -0.25
YQILWSTTSP | < -0.25
VIRHLTPTPSKRPPHVSVNG | < -0.25
GRDRAH | < -0.25
RVIH | -0.168
QFRQYGKTVLCVVQ | < -0.25
EIVKHGKLIARRGCQAQLLI | < -0.25
ASSGTARHNVEITRIHCTPA | < -0.25
CYHGN | < -0.25
